Measurements reported in PubChem BioAssay AID1259308 (NCATS, 2017).
Shown is an unselected part of about 59,000 deposited reagents. About 1,510 of all reagents (2.6%) count as active. 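Calls use total luciferase alone and ignore viability, so some active siRNAs may act by altering cell number.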 Reagents against one gene are numbered here. Further read-outs or replicates are left out here.

Assay: 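Genes whose loss raises luciferase production in HEK293 cells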 (primary screen)
Cells: human HEK293 embryonic kidney cells stably expressing firefly luciferase (HEK-CMV-Luc2-Hygro)
Knock-down reagent: single siRNA against human genes, 0.8 pmol siRNA per well
Duration: 72 h
Measurement: 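Reporter luminescence and viable-cell signal on separate replicate plates, given as percent of non-targeting control and median/MAD z-scores, plus per-cell luciferase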
Direction: total luciferase, z-score and total luciferase, % of control: higher = more reporter protein produced; luciferase per cell, z-score: higher = more reporter output per viable cell
Call rule: 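An siRNA counts as active if its total luciferase robust z-score exceeds 3; genes with two or more such siRNAs out of three were retested with fresh siRNAs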
Calls: active = raised luciferase; inactive = no rise

| Target gene | reagent no. | total luciferase, z-score | total luciferase, % of control | luciferase per cell, z-score | outcome |
| --- | --- | --- | --- | --- | --- |
| HLA-C (GeneID 3107) | 1 | 0.622 | 94.3 | 0.129 | inactive |
| HLA-C (GeneID 3107) | 2 | -0.482 | 72.3 | 3.26 | inactive |
| HLA-C (GeneID 3107) | 3 | 0.568 | 93.2 | 0.334 | inactive |
| RORA (GeneID 6095) | 1 | 1.99 | 121 | 1.15 | inactive |
| RORA (GeneID 6095) | 2 | -0.943 | 63.1 | -1.72 | inactive |
| RORA (GeneID 6095) | 3 | -0.454 | 72.9 | -0.277 | inactive |
| MMUT (GeneID 4594) | 1 | -0.806 | 65.8 | -1.3 | inactive |
| MMUT (GeneID 4594) | 2 | -0.69 | 68.2 | -1.25 | inactive |
| MMUT (GeneID 4594) | 3 | -0.677 | 68.4 | -0.848 | inactive |
| PPP1R2 (GeneID 5504) | 1 | 0.127 | 84.4 | 0.459 | inactive |
| PPP1R2 (GeneID 5504) | 2 | 2.29 | 127 | 2.13 | inactive |
| PPP1R2 (GeneID 5504) | 3 | -1.03 | 61.4 | -1.38 | inactive |
| AFF4 (GeneID 27125) | 1 | -0.126 | 79.4 | 1.21 | inactive |
| AFF4 (GeneID 27125) | 2 | -1.34 | 55.1 | -1.39 | inactive |
| AFF4 (GeneID 27125) | 3 | 0.245 | 86.8 | 0.38 | inactive |
| SOCS7 (GeneID 30837) | 1 | -0.337 | 75.2 | -0.645 | inactive |
| SOCS7 (GeneID 30837) | 2 | 0.513 | 92.1 | -0.363 | inactive |
| SOCS7 (GeneID 30837) | 3 | 1.92 | 120 | 1.16 | inactive |
| TRPM8 (GeneID 79054) | 1 | 1.43 | 110 | 1.71 | inactive |
| TRPM8 (GeneID 79054) | 2 | -1.14 | 59.2 | -1.37 | inactive |
| TRPM8 (GeneID 79054) | 3 | -0.362 | 74.7 | -0.222 | inactive |
| DCTN3 (GeneID 11258) | 1 | 1.9 | 120 | 1.63 | inactive |
| DCTN3 (GeneID 11258) | 2 | -0.357 | 74.8 | -0.593 | inactive |
| DCTN3 (GeneID 11258) | 3 | 0.757 | 96.9 | 1.12 | inactive |

The list goes on, starting with the last 6 of the part before.
| Target gene | reagent no. | total luciferase, z-score | total luciferase, % of control | luciferase per cell, z-score | outcome |
| --- | --- | --- | --- | --- | --- |
| TRPM8 (GeneID 79054) | 1 | 1.43 | 110 | 1.71 | inactive |
| TRPM8 (GeneID 79054) | 2 | -1.14 | 59.2 | -1.37 | inactive |
| TRPM8 (GeneID 79054) | 3 | -0.362 | 74.7 | -0.222 | inactive |
| DCTN3 (GeneID 11258) | 1 | 1.9 | 120 | 1.63 | inactive |
| DCTN3 (GeneID 11258) | 2 | -0.357 | 74.8 | -0.593 | inactive |
| DCTN3 (GeneID 11258) | 3 | 0.757 | 96.9 | 1.12 | inactive |
| LYN (GeneID 4067) | 1 | -0.582 | 70.3 | -0.527 | inactive |
| LYN (GeneID 4067) | 2 | 0.157 | 85 | 0.439 | inactive |
| LYN (GeneID 4067) | 3 | -1.27 | 56.6 | -1.72 | inactive |
| ABCC11 (GeneID 85320) | 1 | 0.219 | 86.2 | -0.359 | inactive |
| ABCC11 (GeneID 85320) | 2 | -0.0348 | 81.2 | 0.148 | inactive |
| ABCC11 (GeneID 85320) | 3 | -0.49 | 72.1 | -0.853 | inactive |
| DIPK2A (GeneID 205428) | 1 | -0.165 | 78.6 | -0.235 | inactive |
| DIPK2A (GeneID 205428) | 2 | 2.17 | 125 | 1.2 | inactive |
| DIPK2A (GeneID 205428) | 3 | -0.225 | 77.4 | -0.00906 | inactive |
| PPP2R5D (GeneID 5528) | 1 | -1.11 | 59.8 | -0.218 | inactive |
| PPP2R5D (GeneID 5528) | 2 | 0.109 | 84.1 | -0.45 | inactive |
| PPP2R5D (GeneID 5528) | 3 | -0.25 | 76.9 | -0.554 | inactive |
| RPS3 (GeneID 6188) | 1 | -2.5 | 32.2 | -1.69 | inactive |
| RPS3 (GeneID 6188) | 2 | -2.78 | 26.6 | -1.97 | inactive |
| RPS3 (GeneID 6188) | 3 | -3 | 22.2 | -3.58 | inactive |
| EIF6 (GeneID 3692) | 1 | -0.942 | 63.2 | -0.555 | inactive |
| EIF6 (GeneID 3692) | 2 | -0.957 | 62.8 | -0.996 | inactive |
| EIF6 (GeneID 3692) | 3 | -0.531 | 71.3 | -0.33 | inactive |
| ENTR1 (GeneID 10807) | 1 | 2.75 | 137 | 3.83 | inactive |
| ENTR1 (GeneID 10807) | 2 | -1.01 | 61.8 | -0.53 | inactive |
| ENTR1 (GeneID 10807) | 3 | 0.0132 | 82.1 | -0.643 | inactive |
| NPEPPS (GeneID 9520) | 1 | 0.505 | 91.9 | 0.738 | inactive |
| NPEPPS (GeneID 9520) | 2 | -0.304 | 75.8 | 0.259 | inactive |
| NPEPPS (GeneID 9520) | 3 | 0.872 | 99.2 | 0.435 | inactive |
| ZNF483 (GeneID 158399) | 1 | 1.52 | 112 | 1.94 | inactive |
| ZNF483 (GeneID 158399) | 2 | -0.034 | 81.2 | 0.0805 | inactive |
| ZNF483 (GeneID 158399) | 3 | 1.05 | 103 | 0.471 | inactive |
| RAB11FIP4 (GeneID 84440) | 1 | 0.937 | 101 | 0.463 | inactive |
| RAB11FIP4 (GeneID 84440) | 2 | -0.451 | 72.9 | -0.841 | inactive |
| RAB11FIP4 (GeneID 84440) | 3 | 1.58 | 113 | 0.514 | inactive |
| AXIN1 (GeneID 8312) | 1 | -0.375 | 74.4 | -0.167 | inactive |
| AXIN1 (GeneID 8312) | 2 | 2.3 | 128 | 1.66 | inactive |
| AXIN1 (GeneID 8312) | 3 | -2.37 | 34.7 | -2.42 | inactive |
